Results are given in words; binding and its absence hold for the method and conditions named. In cells and extracts the contact can be indirect. Some binding calls cover weakened binding; strength is not graded here.
Tests used:
[1] = biological target: MKK7 (full length MKK7 expressed from the pGST vector in HEK293T cells) (human) (UniProt O14733); experiment: GST pull-down from HEK293T lysate, Western blot
[2] = biological target: PP2Ac (Protein Phosphatase 2Ac) expressed from the pGST (pEBG) vector in HEK293T cells (human) (UniProt P67775); experiment: GST pull-down, Western blot (legend of FIG. 10A)
[3] = biological target: MKK7 (full length MKK7 expressed from the pGST vector in HEK293T cells) (human) (UniProt O14733); experiment: GST pull-down, Western blot (legend of FIG. 10B)
[4] = biological target: PP2Ac (Protein Phosphatase 2Ac) expressed from the pGST (pEBG) vector in HEK293T cells (human) (UniProt P67775); experiment: GST pull-down from transfected HEK293T lysate, Western blot
[5] = biological target: MKK7 (full length MKK7 expressed from the pGST vector in HEK293T cells) (human) (UniProt O14733); experiment: GST pull-down from HEK293T lysate after MKK7 over-expression
[6] = biological target: MKK7 (full length MKK7 expressed from the pGST vector in HEK293T cells) (human) (UniProt O14733); experiment: GST pull-down after MKK7 over-expression (legend of FIG. 11A)
[7] = biological target: MKK7 (full length MKK7 expressed from the pGST vector in HEK293T cells) (human) (UniProt O14733); experiment: GST pull-down from transfected HEK293T lysate, Western blot (FIG. 10B)
[8] = biological target: PP2Ac (Protein Phosphatase 2Ac) expressed from the pGST (pEBG) vector in HEK293T cells (human) (UniProt P67775); experiment: as above
[9] = biological target: PP2Ac (Protein Phosphatase 2Ac) expressed from the pGST (pEBG) vector in HEK293T cells (human) (UniProt P67775); experiment: GST pull-down from HEK293T lysate after PP2Ac over-expression, Western blot
[10] = biological target: MKK7 recombination protein from pET21-MKK7, made in E. coli BL21 (human) (UniProt O14733); experiment: in vitro GST pull-down of recombinant proteins (legend of FIG. 11C)
[11] = biological target: PP2Ac recombination protein from pET21-PP2Ac, made in E. coli BL21 (human) (UniProt P67775); experiment: as above
[12] = biological target: MKK7 recombination protein from pET21-MKK7, made in E. coli BL21 (human) (UniProt O14733); experiment: in vitro GST pull-down, recombinant proteins from E. coli at 1:1 ratio
[13] = biological target: PP2Ac recombination protein from pET21-PP2Ac, made in E. coli BL21 (human) (UniProt P67775); experiment: as above

Protein sequences, listed by entry. Tags and fused reporters are not part of them. Lines headed by an entry give the natural chain unless they say otherwise; changes in a name come on top.
UniProt O14733: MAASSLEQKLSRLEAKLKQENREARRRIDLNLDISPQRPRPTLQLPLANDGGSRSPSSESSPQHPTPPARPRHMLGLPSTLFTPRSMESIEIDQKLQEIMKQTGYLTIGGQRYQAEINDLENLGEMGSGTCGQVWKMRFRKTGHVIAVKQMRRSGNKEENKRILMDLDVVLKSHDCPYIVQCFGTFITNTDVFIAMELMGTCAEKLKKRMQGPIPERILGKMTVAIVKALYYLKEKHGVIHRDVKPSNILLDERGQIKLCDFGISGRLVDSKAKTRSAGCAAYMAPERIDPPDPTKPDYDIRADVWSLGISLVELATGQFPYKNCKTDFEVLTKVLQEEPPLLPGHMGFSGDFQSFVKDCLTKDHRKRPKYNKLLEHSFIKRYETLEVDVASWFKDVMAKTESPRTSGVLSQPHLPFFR
UniProt P67775: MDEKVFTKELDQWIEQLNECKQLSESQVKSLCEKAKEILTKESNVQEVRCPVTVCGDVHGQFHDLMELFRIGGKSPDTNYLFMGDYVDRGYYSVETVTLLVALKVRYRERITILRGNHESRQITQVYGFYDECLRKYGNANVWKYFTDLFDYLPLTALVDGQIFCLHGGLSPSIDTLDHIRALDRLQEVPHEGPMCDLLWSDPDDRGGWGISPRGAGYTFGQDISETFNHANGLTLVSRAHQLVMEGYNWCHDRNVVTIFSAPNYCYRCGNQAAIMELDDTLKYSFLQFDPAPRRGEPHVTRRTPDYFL

Measured: binding

B1: TIP41 (full length TIP41 protein expressed from the pHA vector in HEK293T cells) (protein, not shown: small tags and cut ends)
chain: MMIHGFQSSHRDFCFGPWKLTASKTHIMKSADVEKLADELHMPSLPEMMFGDNVLRIQHGSGFGIEFNATDALRCVNNYQGMLKVACAEEWQESRTEGEHSKEVIKPYDWTYTTDYKGTLLGESLKLKVVPTTDHIDTEKLKAREQIKFFEEVLLFEDELHDHGVSSLSVKIRVMPSSFFLLLRFFLRIDGVLIRMNDTRLYHEADKTYMLREYTSRESKISSLMHVPPSLFTEPNEISQYLPIKEAVCEKLIFPERIDPNPADSQKSTQVE
not listed: [10] | [11] | [12] | [13]
binds: all other assays above

B2: TIP41 recombination protein from pGEX4T-TIP41, made in E. coli BL21 (protein, not shown: a dimerising Fc or GST)
chain: B1 chain
binds: [10] | [11] | [12] | [13]

Reference: patent US20120315284A1
